# Experimental data from PubChem BioAssay AID1259415 (National Center for Advancing Translational Sciences (NCATS), 2018).
# Several values for one entry are separate records, joined by “and”; a condition that tells them apart may be missing. Identical values can stand only once. Out of some 410,000 compounds screened, about 18,000 (4.4%) were called active. The shares of active, inactive and inconclusive entries below differ from those in the screen. Rule as the data show it: active = activity change below about -60%; inconclusive = no clear call, values can overlap the other calls; inactive = above about -39%. Where a structure was tested more than once in an assay, its records may differ in their call.
# Test: qHTS Assay for inhibitors of the human cytomegalovirus (HCMV)
# Conditions: HFF cells, HCMV-luciferase reporter, 72 h; at 57.5 µM; stronger effect = lower value
# Method in brief: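 HFF cells seeded 16 h at 37C, treated with compounds, infected with luciferase-reporter HCMV at MOI 1 PFU/cell; luciferase read at 72 h post infection, normalized to buffer-only and Salinomycin controls.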
# % is scaled to controls: 0 for no effect and ±100 for the full control effect.
row,SMILES,"activity change, negative = inhibition"
1,Nc1cc[n+](CC(=O)Nc2ccccc2)cc1,inactive: -39.6%
2,COc1ccc(CNC(=O)c2cc3ccccn3n2)cc1OC,inactive: 12.6%
3,CC(C)(C)c1cc(-c2nc(N)nc(N)n2)cc(C(C)(C)C)c1,inconclusive: -40.4%
4,Cc1ccc(CNC(=O)c2c(C)oc3ncnc(N4CCOCC4)c23)cc1,inconclusive: -40.8%
5,NC(=S)Nc1cccc(-c2n[nH]c(=S)o2)c1,inconclusive: -46.8%
6,FC(F)(F)c1ccc(/C=N/N2CCN(Cc3ccccc3)CC2)cc1,inactive: -27.9%
7,Cc1ccc(C)c(S(=O)(=O)N2CCN(C(=O)C3CCN(C(=O)c4ccc(F)cc4)CC3)CC2)c1,inconclusive: -56.6%
8,COc1cc(NC(=O)Cn2c(=O)ccc3cc(S(=O)(=O)N4CCCC4)ccc32)cc(OC)c1,inactive: -29.5%
9,O=C(C1CCN(S(=O)(=O)c2ccc(Br)s2)CC1)N1CCN(c2cccc(C(F)(F)F)c2)CC1,inconclusive: -42.2%
10,CCCCNc1cccc2c1S(=O)(=O)N(CCCC)CC(COCc1ccccc1)O2 (stereo not drawn),inactive: -21.3%
11,C=CCC(C#N)(c1ccc(OC)c(OC)c1)c1cnccn1 (stereo not drawn),active: -64.9%
12,N#Cc1c(-n2ncnc2-c2ccc(F)cc2)sc2c1CCCCC2,inconclusive: -52.7%
13,Cc1ccc(C(=O)NC(=S)Nc2ccc(NC(=O)c3cccs3)cc2)cc1[N+](=O)[O-],active: -78.3%
14,Cc1nn(-c2ccccc2)c2c1c(C)c(CCC(=O)NCC1CCCO1)c(=O)n2C (stereo not drawn),inconclusive: -43.1%
15,Cc1ccc(NC(=O)Cn2cc(S(=O)(=O)Cc3ccc(F)cc3)c3ccccc32)cc1Cl,inconclusive: 0%
16,COc1ccc(Cl)cc1NC(=O)Cn1nnc(C(=O)NCCc2ccc(OC)c(OC)c2)c1N,inconclusive: -42.5%
17,CCOc1ccccc1C(=O)N(Cc1sccc1C)C1CCS(=O)(=O)C1 (stereo not drawn),inactive: 56.9% and inactive: -11.3%
18,COc1cc(S(=O)(=O)N(C)C2CCCCC2)c(C)cc1C,inconclusive: -48.1%
19,Cc1c(C(=O)NCc2ccco2)oc2c(Cl)cccc12,inactive: 52.4%
20,CC(C)c1nnc(NC(=O)CCCCCN2C(=O)C3C4C=CC(C4)C3C2=O)s1 (stereo not drawn),inconclusive: -46.1%
21,O=S(=O)(c1ccccc1)N1CCN(c2ccccc2)CC1,inactive: 21.9%
22,COc1ccc(NC(=O)CN(C2CCCCC2)S(C)(=O)=O)cc1Cl,active: -72.7%

row,SMILES,"activity change, negative = inhibition"
1,N#Cc1nc(Cc2ccccc2)oc1NCCCn1ccnc1,inactive: 15.2%
2,Nc1n[nH]c2c1C1(CCCCC1)Cc1ccccc1-2,inactive: 7.5%
3,COc1ccc(C(=O)N2CCCC(c3cc(C(=O)Nc4ccccc4)no3)C2)cc1 (stereo not drawn),active: -72.5%
4,COc1ccc(OC(C)C(=O)NC2CCCCCCC2)cc1 (stereo not drawn),inactive: 3.11%
5,CSc1ccc(CCNC(=O)c2ccc3c(Cl)c4c(nc3c2)CCCC4)cc1,inconclusive: -45.2%
6,COc1ccc([C@H]2CC(=O)C=C(c3cccc(OC(F)(F)F)c3)C2)cc1,inactive: -35.8%
7,O=C(Nc1cccnc1)c1ccc(Cl)c(S(=O)(=O)N2CCCCCC2)c1,inconclusive: -42%
8,Cc1ccc(C)c(N2CCN(C(=O)C3CCN(S(=O)(=O)c4c(C)noc4C)CC3)CC2)c1,active: -68.4%
9,CCOC(=O)N1CCN(Cc2ccc(O)c3ncccc23)CC1,inactive: -30.7%
10,CCCCC(=O)OCC(=O)Nc1ccc(C)c(F)c1,inconclusive: -41.6%
11,CCOC(=O)N1CCN(C(=O)c2ccc(Cn3c(=S)[nH]c4ccc(Br)cc4c3=O)cc2)CC1,active: -94.9%
12,CCN(CC)C(=S)SCC(=O)c1ccc(F)cc1,inactive: 171%
13,CCOc1ccccc1CN1CCN(C2CCC2)CC1CCO (stereo not drawn),active: -93.5%
14,Cc1cccc(N2CCN(C(=O)C3CCN(c4ncnc5c4nc4n5CCCCC4)CC3)CC2C)c1 (stereo not drawn),inactive: -22.8% and active: -96.1%
15,COc1ccc(-n2c(C)cc(C3=NNC(=NC4CC4)SC3)c2C)cc1,active: -71.3%
16,COc1ccc(S(=O)(=O)N(C)CC(=O)Nc2ccc3c(c2)OCO3)cc1OC,inactive: 10.2%
17,Cc1ccc(S(=O)(=O)N2[C@H](CC(=O)c3cccs3)OC[C@@H]2C(C)C)cc1,inconclusive: -42.4%
18,Cc1ccc(C)c(N2CCN(C(=O)C3CCCN(c4ncnc5c4nc4n5CCCCC4)C3)CC2)c1 (stereo not drawn),active: -69%
19,NS(=O)(=O)c1ccc(CCNCc2cc(Br)ccc2OCc2ccccc2F)cc1,inconclusive: -52.3%
20,O=C(OCc1cc(=O)n2ccsc2n1)C1(c2ccccc2)CC1,active: -98.4%
21,O=c1c(-c2nnc(SCc3ccc(Cl)cc3)o2)cccn1Cc1ccccc1,inconclusive: -59.5%
22,O=C(Oc1c(Br)cc([N+](=O)[O-])cc1Br)c1cccnc1,inactive: -37%

row,SMILES,"activity change, negative = inhibition"
1,C=CCNc1nnc(Cl)c2ccccc12,inconclusive: -46.5%
2,CCCc1nc(SCC(=O)N2CCCC2)c2ccccc2n1,active: -89.2%
3,CCc1ccc(OCCn2c(C3CC(=O)N(Cc4ccc(F)cc4)C3)nc3ccccc32)cc1 (stereo not drawn),active: -105%
4,COCc1nnc(NC(=O)c2sc3ccccc3c2Cl)s1,inactive: 44.7%
5,O=C(NCC1CCCO1)c1ccc(COc2ccccc2Br)cc1 (stereo not drawn),inconclusive: -46.3%
6,COc1cccc(C(=O)Nc2nc(-c3ccc(Br)cc3)ns2)c1,inconclusive: -57.9%
7,CCCCSc1ccc(NC(=O)c2cccnc2)cc1,inactive: 1.96%
8,COc1ccc(CCNC(=O)C2CC(=O)N(c3ccc(C(C)(C)C)cc3)C2)cc1OC (stereo not drawn),active: -93.7%
9,Cc1ccccc1CNc1ncnc2cc(Cl)ccc12,inconclusive: -42.5%
10,NC(=O)C1(N2CCCCC2)CCN(c2nc(-c3ccc(Br)cc3)cs2)CC1,inconclusive: -51.7%
11,C[n+]1ccccc1/C=C/c1ccc(F)c(F)c1,inconclusive: -46.3%
12,CCn1c(CSCc2c(Cl)cccc2Cl)n[nH]c1=S,active: -67.6%
13,O=C(NCc1cccs1)C(=O)NCC(c1ccco1)N1CCN(c2ccc(F)cc2)CC1 (stereo not drawn),inactive: -31.9%
14,CCC(CC)NC(=O)O[C@H]1CC[C@@]23CCCN2C(=O)CCC[C@H]3[C@H]1Cc1ccccc1,inconclusive: -41.6%
15,Cn1c(O)c(N=NC(=S)Nc2ccccc2F)c2cc(S(=O)(=O)N3CCOCC3)ccc21,active: -63.1%
16,N#Cc1ccc(CSc2nnc(Nc3ccccc3)s2)cc1,inconclusive: -42.9%
17,Cc1ccc(/C=C(\C#N)C(=O)Nc2cccc(Br)c2)o1,inconclusive: -42.8%
18,Cn1c(=O)c2nc(Cl)c(-c3ccccc3)nc2n(C)c1=O,inconclusive: -45.1%
19,CCc1nnc(NC(=O)c2nc(Cl)ccc2Cl)s1,inactive: -6.69%
20,Cc1cccc(NS(=O)(=O)c2ccc(C)c(C(=O)NC3CCN(Cc4ccccc4)CC3)c2)c1,inconclusive: -54.1%
21,COC(=O)c1ccc(N2C(c3cc(OC)cc(OC)c3)=Cc3ccc(OC)cc3C2CC(=O)c2ccco2)cc1 (stereo not drawn),inactive: 24.1%
22,CCn1c(SCC(=O)Nc2cc(C)on2)nnc1-c1ccc(OC)cc1,inconclusive: -55.7%

row,SMILES,"activity change, negative = inhibition"
1,Cc1oc(-c2ccc(Cl)cc2)nc1CN1CCCC(C(=O)NCc2ccccc2)C1 (stereo not drawn),inactive: -18.3%
2,CCCCNC(C(=O)Nc1cccc(S(=O)(=O)N2CCOCC2)c1)c1ccccc1 (stereo not drawn),inconclusive: -52.3%
3,COc1ccc(-c2onc(C)c2C)cc1S(=O)(=O)N(C)Cc1ccccc1,inconclusive: -42.6%
4,O=C(NCc1ccc(F)cc1)C(=O)c1cn(CC(=O)N2CCCC2)c2ccccc12,inconclusive: -48.5%
5,Cn1nc(C(C)(C)C)c([N+](=O)[O-])c1C(=O)Nc1cccc2ccccc12,inconclusive: -46.4%
6,COc1cc(C(=O)N2c3ccccc3CCC2C)cc(OC)c1OC (stereo not drawn),inconclusive: -51.9%
7,COc1ccc(S(=O)(=O)N2CCCCC2)cc1NC(=O)Cc1cccs1,inactive: 0%
8,Cc1cc(Cl)c(OCCCN2CCCCC2)c(Br)c1,inconclusive: -40.9%
9,O=C(Cc1ccccc1)NC(=S)Nc1ccc(N2CCCCC2)cc1,inconclusive: -47.4%
10,CC(C)(C)c1cc(C(=O)N/N=C/c2ccncc2)n[nH]1,inconclusive: -51.7%
11,Cc1ccc(CNC(=O)C2CC(=O)N(C3CCCC3)C2)cc1 (stereo not drawn),inconclusive: -52.3%
12,CCOC(=O)C1(Cc2ccccc2)CCN(Cc2ccc(C)s2)CC1,inconclusive: -44%
13,CC(C)(C)C(=O)NC(=S)Nc1ccccn1,inconclusive: -53.9%
14,Cc1ccc(C(=O)N/C(=C\c2ccc(Cl)cc2)C(=O)NC2CCCCC2)cc1,active: -97.6%
15,C/C(=N\Nc1ccc(Cl)c(C(=O)O)c1)c1cccs1,inconclusive: -58.8%
16,CN(C(=S)NC(=O)/C=C/c1ccc(F)cc1)C1CCCCC1,active: -76.3%
17,CC(C)(C)c1ccc(NC(=O)c2cc(C3CCCN(S(=O)(=O)c4cccc5cccnc45)C3)on2)cc1 (stereo not drawn),active: -85.7%
18,COc1ccc(CCNc2ncnc3sccc23)cc1OC,active: -89.2%
19,COc1ccccc1NC(=O)c1cc2ccccc2o/c1=N\O,inconclusive: -50.2%
20,CC(C)CC(NC(=O)c1ccc(C#CC(C)(C)O)s1)C(=O)O (stereo not drawn),inconclusive: -52.9%
21,Cc1ccc(NC(=O)c2cnc3sc(N4CCOCC4)nn3c2=O)cc1N(C)C,inactive: -2.12%
22,O=C(c1ccc2c(c1)N(Cc1ccccc1)C(=O)c1ccccc1S2(=O)=O)N1CCN(Cc2ccccc2)CC1,inconclusive: -53.8%
